Measured values taken from article PMC8241718.

Molecular target: T1, Flag-DUSP9 (adenoviral, in NRVM) (UniProt Q99956)
T1 sequence: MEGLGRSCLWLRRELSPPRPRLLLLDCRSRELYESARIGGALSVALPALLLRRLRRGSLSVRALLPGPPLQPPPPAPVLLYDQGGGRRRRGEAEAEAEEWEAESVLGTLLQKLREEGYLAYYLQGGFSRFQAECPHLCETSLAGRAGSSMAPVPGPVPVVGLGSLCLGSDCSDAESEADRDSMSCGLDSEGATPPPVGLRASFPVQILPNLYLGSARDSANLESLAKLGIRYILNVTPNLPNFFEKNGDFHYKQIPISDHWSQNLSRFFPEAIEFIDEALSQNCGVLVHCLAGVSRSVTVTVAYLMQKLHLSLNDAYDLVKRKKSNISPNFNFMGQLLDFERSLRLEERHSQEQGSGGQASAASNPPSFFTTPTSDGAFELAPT
Test: co-IP; NRVM infected with Flag-DUSP9 (adenoviral); endogenous ASK1; which protein was precipitated is not told

binding: binds
Substance: endogenous ASK1 (apoptosis signal-regulating kinase 1) of NRVM (rat (endogenous in NRVM)) (enzyme)

No constants are given. Whether binding was seen depends on the method and setting. In cells and extracts the contact can be indirect. A result given as binding can be weak or reduced; the word gives no strength. Tags and fused reporters may be left off the sequences shown.
